Test results: PMC9640553
Results are given in words; binding and its absence hold for the method and conditions named. In cells and extracts the contact can be indirect. A yes stands for co-enrichment or nearness to the bait. Other partners may have been found. No binding means not detected with the bait. Where a sequence is shown, tags or fusion partners need not be part of it.

Amino acid sequences for entries named in this document (tags omitted).
UniProt O35129: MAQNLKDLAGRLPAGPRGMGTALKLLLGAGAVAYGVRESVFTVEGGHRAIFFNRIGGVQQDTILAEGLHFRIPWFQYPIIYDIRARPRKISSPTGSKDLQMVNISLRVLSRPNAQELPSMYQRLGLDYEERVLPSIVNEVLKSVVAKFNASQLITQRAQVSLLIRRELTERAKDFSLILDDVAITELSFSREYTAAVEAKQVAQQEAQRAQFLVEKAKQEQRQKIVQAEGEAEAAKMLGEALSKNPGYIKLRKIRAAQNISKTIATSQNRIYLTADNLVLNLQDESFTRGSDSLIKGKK

Molecular target: T1, Twinkle-APEX2-V5 (UniProt Q8CIW5)
T1 sequence: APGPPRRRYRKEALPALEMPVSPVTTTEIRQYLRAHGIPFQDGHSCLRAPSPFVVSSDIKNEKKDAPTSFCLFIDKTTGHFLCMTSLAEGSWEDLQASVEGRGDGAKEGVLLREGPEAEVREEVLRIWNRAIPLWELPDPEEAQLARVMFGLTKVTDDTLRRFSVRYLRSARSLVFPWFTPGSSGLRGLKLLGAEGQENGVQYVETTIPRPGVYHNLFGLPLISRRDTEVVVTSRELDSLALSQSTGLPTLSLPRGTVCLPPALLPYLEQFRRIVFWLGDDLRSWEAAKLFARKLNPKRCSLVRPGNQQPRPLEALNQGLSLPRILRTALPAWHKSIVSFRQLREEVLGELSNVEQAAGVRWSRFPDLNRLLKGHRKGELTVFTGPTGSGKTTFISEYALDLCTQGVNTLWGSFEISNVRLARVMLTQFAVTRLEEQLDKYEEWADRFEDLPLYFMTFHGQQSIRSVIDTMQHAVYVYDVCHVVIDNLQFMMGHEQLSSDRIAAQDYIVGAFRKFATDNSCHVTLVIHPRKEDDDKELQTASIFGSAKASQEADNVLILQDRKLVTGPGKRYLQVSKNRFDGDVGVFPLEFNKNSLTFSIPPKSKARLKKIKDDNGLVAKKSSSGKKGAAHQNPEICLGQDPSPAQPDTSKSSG
Experiment: proximity labelling; APEX2 proximity biotinylation in transgenic C2C12 (2.5 mM biotin-phenol 7 h, 1 mM H2O2 1 min), RIPA lysate, streptavidin-magnetic beads, mass spectrometry; enrichment against mitoAPEX2 or empty vector pBabe

binding: no binding
Substance: Prohibitin2 (from UniProt O35129 1-299)
